# According to the supplement of paper PMC3682954:
# Where “and” joins values, the source holds several entries; their conditions need not be identical. Equal values may be shown once. Where a name gives a salt, the structure may show the parent alone. ± gives the standard deviation of the averaged measurements. The list shows a part of the results. Single values are uncertain, as repeats are few or missing.
# System: RAW 264.7
# Experiment: cell viability (MTT) relative to vehicle control; higher = more viable cells
# Conditions: stimulus: HMGB1 5 ug/ml, 18 h
# [1] = compound concentration: 1 ug/ml
Compound,cell viability (compound concentration: 3 uM),cell viability [1]
Cc1ccsc1/C=C/C1=NCCCN1C [Morantel tartrate],94.8%,–
Cc1ccsc1/C=C/C1=NCCCN1C,103%,–
CNC(C)CCC=C(C)C (stereo unspecified) [Isometheptene mucate],82.8%,–
O=C(COc1ccc(Cl)cc1)N1CCN(Cc2ccc3c(c2)OCO3)CC1,112%,–
O=C(COc1ccc(Cl)cc1)N1CCN(Cc2ccc3c(c2)OCO3)CC1 [Fipexide hydrochloride],102%,–
CN(Cc1cnc2nc(N)nc(N)c2n1)c1ccc(C(=O)N[C@@H](CCC(=O)O)C(=O)O)cc1 [Methotrexate],67.4%,–
CN(Cc1cnc2nc(N)nc(N)c2n1)c1ccc(C(=O)N[C@@H](CCC(=O)O)C(=O)O)cc1 [Methotrexate hydrate],91.9%,–
CN(Cc1cnc2nc(N)nc(N)c2n1)c1ccc(C(=O)N[C@@H](CCC(=O)O)C(=O)O)cc1,94%,–
CCN(CC)CCNc1ccc(CO)c2sc3ccccc3c(=O)c12 [Hycanthone],95.9%,–
CCN(CC)CCNc1ccc(CO)c2sc3ccccc3c(=O)c12,100 ± 20%,–
CCOc1ccc2nc3cc(N)ccc3c(N)c2c1,112%,–
O=c1c(O)c(-c2ccc(O)c(O)c2)oc2ccccc12,–,70.3%
COc1cc(-c2oc3cc(O)ccc3c(=O)c2O)cc(OC)c1OC [Robinetin trimethyl ether],–,95.1%
CCN(CC)CCOC(=O)C(c1ccccc1)c1ccccc1 [Adiphenine hydrochloride],98.7%,–
CCN(CC)CCOC(=O)C(c1ccccc1)c1ccccc1,102%,–
OC(CCCN1CCCCC1)(c1ccccc1)c1ccccc1 [Diphenidol hydrochloride],105%,–
CCOC(=O)c1ccc(N)cc1,107%,–
CCOC(=O)c1ccc(N)cc1 [Benzocaine],102%,–
C[C@H]1[C@H](C)CC[C@]2(C(=O)O)CC[C@]3(C)C(=CC[C@@H]4[C@@]5(C)C[C@@H](O)[C@H](O)[C@@](C)(CO)[C@@H]5CC[C@]43C)[C@H]12 [Asiatic acid],–,96.9%

Compound,cell viability (compound concentration: 3 uM),cell viability [1]
CC(C)(C)CC(C)(C)c1ccc(O)c(Cc2ccc(Cl)cc2Cl)c1,80.8%,–
CCCN(CCc1ccccc1)C1CCc2c(O)cccc2C1 (racemic) [(±)-PPHT hydrochloride],100%,–
COc1cc2c(CCNC(C)=O)c[nH]c2cc1Cl [6-Chloromelatonin],105%,–
Cc1cc2c(C(C)C)c(O)c(O)c(/C=N/n3c(=O)[nH][nH]c3=O)c2c(O)c1-c1c(C)cc2c(C(C)C)c(O)c(O)c(/C=N/n3c(=O)[nH][nH]c3=O)c2c1O,–,111%
Cc1ccc(S(=O)(=O)NC(=O)NN2CCCCCC2)cc1 [Tolazamide],101 ± 18%,–
Cc1ccc(S(=O)(=O)NC(=O)NN2CCCCCC2)cc1,102%,–
COc1cccc(OC)c1C(=O)N[C@@H]1C(=O)N2[C@@H]1SC(C)(C)[C@@H]2C(=O)O,113%,–
C[C@]12CC[C@@H]3c4ccc(OS(=O)(=O)O)cc4CC[C@H]3[C@@H]1CCC2=O,104% and 101%,–
C[C@]12CC[C@@H]3c4ccc(OS(=O)(=O)O)cc4CC[C@H]3[C@@H]1CCC2=O [Estropipate],106%,–
"C=CCn1c(=O)c2c(nc(-c3ccc(S(=O)(=O)O)cc3)n2C)n(C)c1=O [1-Allyl-3,7-dimethyl-8-p-sulfophenylxanthine]",115%,–
CO[C@H](C(=O)[C@@H](O)[C@@H](C)O)[C@@H]1Cc2cc3cc(O[C@H]4C[C@@H](O[C@@H]5C[C@@H](O)[C@H](O)[C@@H](C)O5)[C@H](O)[C@@H](C)O4)c(C)c(O)c3c(O)c2C(=O)[C@H]1O[C@H]1C[C@@H](O[C@@H]2C[C@@H](O)[C@@H](O[C@@H]3C[C@](C)(O)[C@H](O)[C@@H](C)O3)[C@@H](C)O2)[C@H](O)[C@@H](C)O1 [Plicamycin],67.3%,–
CCCCNc1c(C(=O)OCC)c(C)nc2c1cnn2CC [Tracazolate hydrochloride],92.6%,–
CCCCNc1c(C(=O)OCC)c(C)nc2c1cnn2CC [Tracazolate],106%,–
O=C(O)c1cc2cc3c4c(c2oc1=O)CCCN4CCC3 [Coumarin 343],–,105%
COc1cc(NC(C)CCCN)c2ncccc2c1 (stereo unspecified),101%,–
COc1cc(NC(C)CCCN)c2ncccc2c1 (stereo unspecified) [Primaquine],96%,–
COc1cc(NC(C)CCCN)c2ncccc2c1 (stereo unspecified) [Primaquine diphosphate],130%,–
CCCCC1(COC(=O)CCC(=O)O)C(=O)N(c2ccccc2)N(c2ccccc2)C1=O,105%,–
CCCCC1(COC(=O)CCC(=O)O)C(=O)N(c2ccccc2)N(c2ccccc2)C1=O [Suxibuzone],109%,–

# An excerpt of these results, with bars between the fields.
Compound | cell viability (compound concentration: 3 uM) | cell viability [1]
CN(Cc1cnc2nc(N)nc(N)c2n1)c1ccc(C(=O)N[C@@H](CCC(=O)O)C(=O)O)cc1 [Methotrexate hydrate] | 91.9% | –
COc1cccc(OC)c1C(=O)N[C@@H]1C(=O)N2[C@@H]1SC(C)(C)[C@@H]2C(=O)O | 113% | –
CCCCNc1c(C(=O)OCC)c(C)nc2c1cnn2CC [Tracazolate] | 106% | –

# (next part)

Compound,cell viability (compound concentration: 3 uM),cell viability [1]
COc1cc(-c2ccc(=O)[nH]n2)ccc1OC(F)F,92.5% and 112%,–
COc1cc(-c2ccc(=O)[nH]n2)ccc1OC(F)F [Zardaverine],101 ± 8.6%,–
CC[N+](CC)(CC)CC(=O)Nc1c(C)cccc1C [Lidocaine N-ethyl bromide quaternary salt],98.1%,–
Cc1cc(-c2ccccc2)nnc1NCCN1CCOCC1 [Minaprine dihydrochloride],88.8%,–
Cc1cc(-c2ccccc2)nnc1NCCN1CCOCC1,113%,–
Cc1cc(=O)oc2ccc(O)cc12 [6-Hydroxy-4-methyl-2-benzopyrone],–,84.5%
NC(N)=Nc1nc(CSCC/C(N)=N/S(N)(=O)=O)cs1 [Famotidine],99.5 ± 8.4%,–
NC(N)=Nc1nc(CSCC/C(N)=N/S(N)(=O)=O)cs1,107 ± 14%,–
CSc1ccc2c(c1)N(CCC1CCCCN1C)c1ccccc1S2 (stereo unspecified) [Thioridazine hydrochloride],112 ± 1.4%,–
CSc1ccc2c(c1)N(CCC1CCCCN1C)c1ccccc1S2 (stereo unspecified),101%,–
CSc1ccc2c(c1)N(CCC1CCCCN1C)c1ccccc1S2 (stereo unspecified) [Thioridazine],103%,–
CC(C)(Sc1ccc(CCN(CCCCC2CCCCC2)C(=O)NC2CCCCC2)cc1)C(=O)O,94.4%,–
NC1C=CC=C(C(=O)O)C1 (stereo unspecified) [Gabaculine hydrochloride],107%,–
CC/C(=C(/CC)c1ccc(O)cc1)c1ccc(O)cc1,99.6%,–
CC/C(=C(/CC)c1ccc(O)cc1)c1ccc(O)cc1 [Diethylstilbestrol],110 ± 24%,–
CC1=C(/C=C/C(C)=C/C=C/C(C)=C\C(=O)O)C(C)(C)CCC1 [13-cis-retinoic acid],125%,–
CC1=C(/C=C/C(C)=C/C=C/C(C)=C\C(=O)O)C(C)(C)CCC1 [Isotretinoin],111%,–
CC1=C(/C=C/C(C)=C/C=C/C(C)=C\C(=O)O)C(C)(C)CCC1,115%,–
